PubChem BioAssay AID1508588 | Peter MacCallum Cancer Centre – 2020
Test: 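Knock-downs boosting vemurafenib effects on melanoma cell growth or lactate release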 (primary screen). Cell system: human WM266.4 melanoma cells (BRAF V600 mutant). Reagents: siRNA pool against human genes, 40 nM. Timing: 96 h from transfection to read-out. Conditions: vemurafenib 300 nM (about IC25), added 48 h after transfection, for 48 h; comparison arm got DMSO vehicle only. Measurement: 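Ratios to non-targeting siRNA for cell gain, counted as DAPI nuclei after minus before drug and averaged over two replicates, and for absorbance-read medium lactate per cell; both binned into fold-change classes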. Reading the numbers: cell gain with vemurafenib: higher = more cell gain than with non-targeting siRNA; lactate per cell with vemurafenib: higher = more lactate made per cell. Hit rule: 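a knock-down counts as enhancing when its fold-change classes with vehicle and with vemurafenib, taken together, show a stronger drug effect on cell gain or lactate per cell; exact class pairs not stated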. Calls: active = enhances vemurafenib effect; inactive = no enhancement seen.
The whole screen tested about 18,000 reagents; this is a part drawn at random. Over the whole deposit, 790 (4.4%) were called active. 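Calls rest on a combination of fold-change classes in drug and vehicle arms, not all shown here.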

The first 5 records as a preview:
PRR22 — cell gain with vemurafenib = 0.32; lactate per cell with vemurafenib = 1.29; Outcome = inactive
FAAH2 — cell gain with vemurafenib = 0.65; lactate per cell with vemurafenib = 1.36; Outcome = inactive
DPP9 — cell gain with vemurafenib = 0; lactate per cell with vemurafenib = 1.05; Outcome = inactive
CHGA — cell gain with vemurafenib = 0.68; lactate per cell with vemurafenib = 1.04; Outcome = inactive
DRD4 — cell gain with vemurafenib = 0.86; lactate per cell with vemurafenib = 0.44; Outcome = inactive

The listing, repeating the preview:
PRR22 — cell gain with vemurafenib = 0.32; lactate per cell with vemurafenib = 1.29; Outcome = inactive
FAAH2 — cell gain with vemurafenib = 0.65; lactate per cell with vemurafenib = 1.36; Outcome = inactive
DPP9 — cell gain with vemurafenib = 0; lactate per cell with vemurafenib = 1.05; Outcome = inactive
CHGA — cell gain with vemurafenib = 0.68; lactate per cell with vemurafenib = 1.04; Outcome = inactive
DRD4 — cell gain with vemurafenib = 0.86; lactate per cell with vemurafenib = 0.44; Outcome = inactive
CPZ — cell gain with vemurafenib = 0.11; lactate per cell with vemurafenib = 0.96; Outcome = inactive
FSCN1 — cell gain with vemurafenib = 0.55; lactate per cell with vemurafenib = 1.25; Outcome = inactive
TFCP2 — cell gain with vemurafenib = 1.37; lactate per cell with vemurafenib = 0.99; Outcome = inactive
CXCL11 — cell gain with vemurafenib = 0.35; lactate per cell with vemurafenib = 0.78; Outcome = inactive
MMADHC — cell gain with vemurafenib = 1.25; lactate per cell with vemurafenib = 0.47; Outcome = inactive
DMC1 — cell gain with vemurafenib = 0.51; lactate per cell with vemurafenib = 0.9; Outcome = inactive
IGF2R — cell gain with vemurafenib = 0.28; lactate per cell with vemurafenib = 2.47; Outcome = inactive
UGT1A10 — cell gain with vemurafenib = 0.44; lactate per cell with vemurafenib = 0.77; Outcome = inactive
VEGFA — cell gain with vemurafenib = 1.06; lactate per cell with vemurafenib = 0.78; Outcome = inactive
ACTMAP — cell gain with vemurafenib = 0.59; lactate per cell with vemurafenib = 1.17; Outcome = inactive
ABCA9 — cell gain with vemurafenib = 0.92; lactate per cell with vemurafenib = 0.86; Outcome = inactive
KCNS1 — cell gain with vemurafenib = 0.84; lactate per cell with vemurafenib = 0.98; Outcome = inactive
MTMR8 — cell gain with vemurafenib = 0.33; lactate per cell with vemurafenib = 0.94; Outcome = inactive
TRIM21 — cell gain with vemurafenib = 0.62; lactate per cell with vemurafenib = 1.09; Outcome = inactive
ADAM2 — cell gain with vemurafenib = 0.57; lactate per cell with vemurafenib = 0.59; Outcome = inactive
SPR — cell gain with vemurafenib = 0.31; lactate per cell with vemurafenib = 1.72; Outcome = inactive
DCAKD — cell gain with vemurafenib = 0.11; lactate per cell with vemurafenib = 1.82; Outcome = inactive
IL20 — cell gain with vemurafenib = 1; lactate per cell with vemurafenib = 0.62; Outcome = inactive
GABRB3 — cell gain with vemurafenib = 0.43; lactate per cell with vemurafenib = 0.83; Outcome = inactive
SPMIP6 — cell gain with vemurafenib = 0.6; lactate per cell with vemurafenib = 0.28; Outcome = inactive
DENND2A — cell gain with vemurafenib = 0.71; lactate per cell with vemurafenib = 1.06; Outcome = inactive
SKOR2 — cell gain with vemurafenib = 0.98; lactate per cell with vemurafenib = 0.72; Outcome = inactive
INTU — cell gain with vemurafenib = 0.61; lactate per cell with vemurafenib = 0.7; Outcome = inactive
OR4D2 — cell gain with vemurafenib = 0.53; lactate per cell with vemurafenib = 0.54; Outcome = inactive
NSMCE3 — cell gain with vemurafenib = 0.25; lactate per cell with vemurafenib = 0.78; Outcome = inactive
TNR — cell gain with vemurafenib = 0.48; lactate per cell with vemurafenib = 0.74; Outcome = inactive
TMED10 — cell gain with vemurafenib = 0.14; lactate per cell with vemurafenib = 1.68; Outcome = inactive
FAM178B — cell gain with vemurafenib = 0.69; lactate per cell with vemurafenib = 0.97; Outcome = inactive
MTURN — cell gain with vemurafenib = 0.76; lactate per cell with vemurafenib = 0.64; Outcome = inactive
DAW1 — cell gain with vemurafenib = 0.64; lactate per cell with vemurafenib = 1.6; Outcome = inactive
FTMT — cell gain with vemurafenib = 0.57; lactate per cell with vemurafenib = 0.9; Outcome = inactive
PIP4K2A — cell gain with vemurafenib = 0.77; lactate per cell with vemurafenib = 1.48; Outcome = inactive
EFR3A — cell gain with vemurafenib = 0.51; lactate per cell with vemurafenib = 0.69; Outcome = active
SRRM4 — cell gain with vemurafenib = 0.53; lactate per cell with vemurafenib = 1.56; Outcome = inactive
SELENOS — cell gain with vemurafenib = 0.66; lactate per cell with vemurafenib = 0.89; Outcome = inactive
TP53AIP1 — cell gain with vemurafenib = 0.57; lactate per cell with vemurafenib = 0.98; Outcome = inactive
RABEP2 — cell gain with vemurafenib = 0.87; lactate per cell with vemurafenib = 1.77; Outcome = inactive
MECP2 — cell gain with vemurafenib = 0.21; lactate per cell with vemurafenib = 1.72; Outcome = inactive
GOLT1B — cell gain with vemurafenib = 0.54; lactate per cell with vemurafenib = 0.52; Outcome = inactive
KRTAP19-3 — cell gain with vemurafenib = 0.4; lactate per cell with vemurafenib = 1.09; Outcome = inactive
RASSF10 — cell gain with vemurafenib = 1.09; lactate per cell with vemurafenib = 1.12; Outcome = inactive
ZNF575 — cell gain with vemurafenib = 0.79; lactate per cell with vemurafenib = 0.66; Outcome = inactive
GRK4 — cell gain with vemurafenib = -0.05; lactate per cell with vemurafenib = 1.75; Outcome = inactive
KIF13A — cell gain with vemurafenib = 0.91; lactate per cell with vemurafenib = 0.68; Outcome = inactive
TRIM16L — cell gain with vemurafenib = 0.84; lactate per cell with vemurafenib = 0.86; Outcome = inactive
TC2N — cell gain with vemurafenib = 0.97; lactate per cell with vemurafenib = 0.7; Outcome = inactive
TUT1 — cell gain with vemurafenib = 0.23; lactate per cell with vemurafenib = 0.83; Outcome = inactive
